Test results from article PMC7261158.
Numbering of substitutions follows the chain as printed. The exact form of at least one protein or probe is not confirmed. Protein sequences can lack the tags named with them.

Columns and labels:
[1] = molecular target: T1, DnmA (YeeA, M.BsuPY79I) (Bacillus subtilis PY79) (UniProt O31504); assay: EMSA; settings: ScoC EMSA (1x from 5x): 50 mM Tris-HCl pH 8, 1 mM EDTA, 30 mM KCl, 2 mM MgCl2, 1 mM DTT, 0.2% Tween 20, 25 ug/ml salmon sperm DNA, 37 C 15 min; recombinant protein; label: 5' IRD700 on strand 1
T1 sequence (looked up, limits assumed): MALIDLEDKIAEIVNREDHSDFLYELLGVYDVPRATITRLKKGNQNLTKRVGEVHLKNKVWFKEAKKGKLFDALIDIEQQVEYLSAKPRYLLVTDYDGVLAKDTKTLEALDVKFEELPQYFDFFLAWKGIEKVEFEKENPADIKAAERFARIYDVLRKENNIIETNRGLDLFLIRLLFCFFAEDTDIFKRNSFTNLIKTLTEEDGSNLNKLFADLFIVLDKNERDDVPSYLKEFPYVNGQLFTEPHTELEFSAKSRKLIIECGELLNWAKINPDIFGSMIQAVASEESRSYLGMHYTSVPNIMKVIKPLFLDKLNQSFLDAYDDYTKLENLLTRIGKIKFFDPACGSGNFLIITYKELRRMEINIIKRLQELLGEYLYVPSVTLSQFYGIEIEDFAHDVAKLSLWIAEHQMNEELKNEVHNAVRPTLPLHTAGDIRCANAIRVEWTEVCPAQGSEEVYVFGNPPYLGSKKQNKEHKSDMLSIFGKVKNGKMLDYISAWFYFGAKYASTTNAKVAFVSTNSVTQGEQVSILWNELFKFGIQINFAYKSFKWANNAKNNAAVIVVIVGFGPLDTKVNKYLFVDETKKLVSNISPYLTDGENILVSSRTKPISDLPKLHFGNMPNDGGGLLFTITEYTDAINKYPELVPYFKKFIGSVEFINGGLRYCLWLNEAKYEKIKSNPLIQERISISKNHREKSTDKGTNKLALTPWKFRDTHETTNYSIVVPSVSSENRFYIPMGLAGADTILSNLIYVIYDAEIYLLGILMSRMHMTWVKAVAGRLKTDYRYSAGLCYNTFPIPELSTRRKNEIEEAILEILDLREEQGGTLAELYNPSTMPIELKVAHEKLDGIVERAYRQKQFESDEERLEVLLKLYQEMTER

[2] = molecular target: T2, DnmA Y465A (Bacillus subtilis PY79) (UniProt O31504); assay: EMSA; settings: ScoC EMSA (1x from 5x): 50 mM Tris-HCl pH 8, 1 mM EDTA, 30 mM KCl, 2 mM MgCl2, 1 mM DTT, 0.2% Tween 20, 25 ug/ml salmon sperm DNA, 37 C 15 min; recombinant protein; label: 5' IRD700 on strand 1
T2 sequence (looked up, limits assumed): T1 sequence (looked up, limits assumed) with Y465A

| Sequence | binding result [1] | binding result [2] |
| --- | --- | --- |
| GTGCAGCGTATCCGGACAATGACGTGACGGAAACAGAGCTGCTGCTGATC (double strand) [DnmA non-target (GACGTG), oAS10] | binds |  |
| GTGCAGCGTATCCGGACAATGACGAGACGGAAACAGAGCTGCTGCTGATC (double strand) [DnmA target (GACGAG), oAS9] | binds | binds |
| ATATAAACATACATACATACATTATTATATAAACATACATACATACATTA (double strand) [DnmA degenerate sequence (no target), oAS11] | binds |  |
